Reference: the supplement of paper PMC10849652
Some of the results follow.

Chains of the proteins cited; added tags and fusions are not shown. Lines headed by an entry give the natural chain unless they say otherwise; changes in a name come on top.
UniProt O75131: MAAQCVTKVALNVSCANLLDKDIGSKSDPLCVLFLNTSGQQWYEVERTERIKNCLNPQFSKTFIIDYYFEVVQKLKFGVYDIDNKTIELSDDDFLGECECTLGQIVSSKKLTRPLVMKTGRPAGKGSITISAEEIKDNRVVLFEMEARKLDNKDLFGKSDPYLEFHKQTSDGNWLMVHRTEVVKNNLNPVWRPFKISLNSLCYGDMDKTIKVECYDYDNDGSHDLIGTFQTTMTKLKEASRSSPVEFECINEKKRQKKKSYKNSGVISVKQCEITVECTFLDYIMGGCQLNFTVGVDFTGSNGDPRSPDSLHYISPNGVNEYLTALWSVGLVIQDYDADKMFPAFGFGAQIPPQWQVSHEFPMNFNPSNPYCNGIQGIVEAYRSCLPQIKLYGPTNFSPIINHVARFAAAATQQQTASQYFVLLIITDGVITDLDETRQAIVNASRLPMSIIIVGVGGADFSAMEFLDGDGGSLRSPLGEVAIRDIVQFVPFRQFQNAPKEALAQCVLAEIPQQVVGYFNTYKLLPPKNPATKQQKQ
UniProt Q9NX08, whole entry, looked up: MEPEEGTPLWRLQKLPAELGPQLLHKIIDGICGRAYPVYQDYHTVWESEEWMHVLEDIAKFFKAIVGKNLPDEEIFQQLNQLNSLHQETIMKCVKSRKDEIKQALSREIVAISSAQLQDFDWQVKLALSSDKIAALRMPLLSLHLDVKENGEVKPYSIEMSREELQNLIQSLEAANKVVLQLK
UniProt Q86VX2, whole entry, looked up: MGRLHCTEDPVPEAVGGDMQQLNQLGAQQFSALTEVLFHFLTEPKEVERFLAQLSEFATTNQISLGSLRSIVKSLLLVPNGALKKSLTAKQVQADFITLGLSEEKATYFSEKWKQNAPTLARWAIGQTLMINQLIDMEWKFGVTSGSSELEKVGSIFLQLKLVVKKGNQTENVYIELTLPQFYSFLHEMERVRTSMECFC
UniProt Q9H0A8, whole entry, looked up: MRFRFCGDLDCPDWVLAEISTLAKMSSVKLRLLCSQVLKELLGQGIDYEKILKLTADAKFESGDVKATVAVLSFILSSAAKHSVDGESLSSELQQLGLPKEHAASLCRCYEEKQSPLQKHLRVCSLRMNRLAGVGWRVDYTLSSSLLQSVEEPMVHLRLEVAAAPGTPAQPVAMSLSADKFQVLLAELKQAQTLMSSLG
UniProt Q9Y6G5, whole entry, looked up: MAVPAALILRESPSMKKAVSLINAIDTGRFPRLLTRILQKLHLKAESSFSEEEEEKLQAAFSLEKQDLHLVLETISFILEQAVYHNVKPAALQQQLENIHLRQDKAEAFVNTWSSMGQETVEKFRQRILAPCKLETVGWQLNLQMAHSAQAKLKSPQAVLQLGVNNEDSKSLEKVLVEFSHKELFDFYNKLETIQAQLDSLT
UniProt P36551: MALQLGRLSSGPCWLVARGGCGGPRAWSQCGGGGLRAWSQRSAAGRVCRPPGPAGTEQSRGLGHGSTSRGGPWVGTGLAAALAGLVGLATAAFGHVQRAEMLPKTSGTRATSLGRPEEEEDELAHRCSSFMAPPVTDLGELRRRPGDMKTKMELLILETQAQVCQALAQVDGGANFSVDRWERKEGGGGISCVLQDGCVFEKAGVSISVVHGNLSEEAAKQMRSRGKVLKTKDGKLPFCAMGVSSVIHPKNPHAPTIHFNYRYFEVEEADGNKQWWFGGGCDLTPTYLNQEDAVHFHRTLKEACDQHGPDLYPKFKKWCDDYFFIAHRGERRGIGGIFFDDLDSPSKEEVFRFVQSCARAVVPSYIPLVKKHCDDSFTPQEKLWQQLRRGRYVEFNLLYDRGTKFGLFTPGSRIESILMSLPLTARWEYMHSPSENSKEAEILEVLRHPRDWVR
UniProt Q9NZN8, whole entry, looked up: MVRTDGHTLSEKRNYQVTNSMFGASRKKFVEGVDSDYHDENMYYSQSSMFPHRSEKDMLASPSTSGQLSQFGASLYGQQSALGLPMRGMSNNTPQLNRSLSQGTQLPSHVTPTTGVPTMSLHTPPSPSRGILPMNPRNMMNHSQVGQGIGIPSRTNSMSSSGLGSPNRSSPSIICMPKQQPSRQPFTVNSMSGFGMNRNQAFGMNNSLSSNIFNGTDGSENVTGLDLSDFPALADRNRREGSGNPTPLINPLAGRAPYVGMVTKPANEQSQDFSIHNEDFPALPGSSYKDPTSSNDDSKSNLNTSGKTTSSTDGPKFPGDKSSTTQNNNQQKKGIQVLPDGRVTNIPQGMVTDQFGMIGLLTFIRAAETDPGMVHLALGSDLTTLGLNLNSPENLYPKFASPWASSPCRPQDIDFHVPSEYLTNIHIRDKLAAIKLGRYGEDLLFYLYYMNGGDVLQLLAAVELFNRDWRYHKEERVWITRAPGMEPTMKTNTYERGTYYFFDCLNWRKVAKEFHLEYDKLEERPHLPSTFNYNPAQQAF
UniProt Q6PJW8: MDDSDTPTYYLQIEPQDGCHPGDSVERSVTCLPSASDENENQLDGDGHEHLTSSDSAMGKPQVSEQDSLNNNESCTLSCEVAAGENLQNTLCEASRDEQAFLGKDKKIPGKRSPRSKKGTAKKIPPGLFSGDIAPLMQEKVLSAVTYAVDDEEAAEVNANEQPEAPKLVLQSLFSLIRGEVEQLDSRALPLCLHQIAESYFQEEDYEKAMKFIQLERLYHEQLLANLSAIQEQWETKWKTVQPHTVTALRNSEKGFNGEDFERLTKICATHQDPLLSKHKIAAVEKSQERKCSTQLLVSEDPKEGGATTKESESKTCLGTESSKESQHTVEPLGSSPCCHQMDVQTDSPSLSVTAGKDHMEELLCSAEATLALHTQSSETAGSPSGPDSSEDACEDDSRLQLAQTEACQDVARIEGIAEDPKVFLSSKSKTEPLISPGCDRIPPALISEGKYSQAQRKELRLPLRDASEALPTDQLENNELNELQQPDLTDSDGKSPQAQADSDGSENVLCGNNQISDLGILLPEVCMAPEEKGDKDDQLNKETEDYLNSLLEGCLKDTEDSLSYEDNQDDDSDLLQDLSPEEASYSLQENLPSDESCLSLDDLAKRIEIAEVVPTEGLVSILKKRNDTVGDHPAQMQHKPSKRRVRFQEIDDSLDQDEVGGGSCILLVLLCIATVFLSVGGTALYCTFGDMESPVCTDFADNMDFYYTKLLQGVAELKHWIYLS
UniProt Q8NE01: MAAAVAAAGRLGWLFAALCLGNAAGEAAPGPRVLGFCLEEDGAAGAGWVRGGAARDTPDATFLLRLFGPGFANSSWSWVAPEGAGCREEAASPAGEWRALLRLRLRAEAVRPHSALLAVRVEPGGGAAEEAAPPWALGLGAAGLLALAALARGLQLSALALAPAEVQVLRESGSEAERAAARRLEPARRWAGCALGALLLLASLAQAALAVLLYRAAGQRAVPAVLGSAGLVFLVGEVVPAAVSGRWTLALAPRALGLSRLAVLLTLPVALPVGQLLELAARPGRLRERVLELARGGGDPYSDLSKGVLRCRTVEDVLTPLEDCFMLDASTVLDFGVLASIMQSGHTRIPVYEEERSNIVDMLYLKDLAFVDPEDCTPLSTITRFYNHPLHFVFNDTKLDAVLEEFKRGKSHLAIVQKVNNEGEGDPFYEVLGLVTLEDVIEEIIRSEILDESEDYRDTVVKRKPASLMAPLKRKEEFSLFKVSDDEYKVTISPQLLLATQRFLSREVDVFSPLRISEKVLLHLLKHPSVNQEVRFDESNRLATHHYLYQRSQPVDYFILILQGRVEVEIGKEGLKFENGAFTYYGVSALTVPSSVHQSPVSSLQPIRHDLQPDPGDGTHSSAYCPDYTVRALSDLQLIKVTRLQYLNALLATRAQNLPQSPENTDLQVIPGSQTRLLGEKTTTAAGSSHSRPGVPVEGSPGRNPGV
UniProt Q13057: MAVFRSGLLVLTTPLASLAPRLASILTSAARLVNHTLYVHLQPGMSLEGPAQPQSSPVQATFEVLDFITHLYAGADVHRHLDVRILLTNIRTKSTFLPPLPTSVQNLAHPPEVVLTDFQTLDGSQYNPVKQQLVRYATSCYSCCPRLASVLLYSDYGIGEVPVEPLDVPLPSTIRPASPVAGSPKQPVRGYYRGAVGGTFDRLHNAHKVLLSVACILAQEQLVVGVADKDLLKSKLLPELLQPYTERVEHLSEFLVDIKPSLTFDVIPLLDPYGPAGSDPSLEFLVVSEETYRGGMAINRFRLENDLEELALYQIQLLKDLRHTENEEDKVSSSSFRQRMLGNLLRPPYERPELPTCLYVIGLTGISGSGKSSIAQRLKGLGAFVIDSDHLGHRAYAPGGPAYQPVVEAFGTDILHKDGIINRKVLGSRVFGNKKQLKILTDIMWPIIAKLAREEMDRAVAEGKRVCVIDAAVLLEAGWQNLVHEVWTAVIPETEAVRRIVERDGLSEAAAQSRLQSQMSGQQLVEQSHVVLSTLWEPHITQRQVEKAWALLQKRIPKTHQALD
UniProt P38432, whole entry, looked up: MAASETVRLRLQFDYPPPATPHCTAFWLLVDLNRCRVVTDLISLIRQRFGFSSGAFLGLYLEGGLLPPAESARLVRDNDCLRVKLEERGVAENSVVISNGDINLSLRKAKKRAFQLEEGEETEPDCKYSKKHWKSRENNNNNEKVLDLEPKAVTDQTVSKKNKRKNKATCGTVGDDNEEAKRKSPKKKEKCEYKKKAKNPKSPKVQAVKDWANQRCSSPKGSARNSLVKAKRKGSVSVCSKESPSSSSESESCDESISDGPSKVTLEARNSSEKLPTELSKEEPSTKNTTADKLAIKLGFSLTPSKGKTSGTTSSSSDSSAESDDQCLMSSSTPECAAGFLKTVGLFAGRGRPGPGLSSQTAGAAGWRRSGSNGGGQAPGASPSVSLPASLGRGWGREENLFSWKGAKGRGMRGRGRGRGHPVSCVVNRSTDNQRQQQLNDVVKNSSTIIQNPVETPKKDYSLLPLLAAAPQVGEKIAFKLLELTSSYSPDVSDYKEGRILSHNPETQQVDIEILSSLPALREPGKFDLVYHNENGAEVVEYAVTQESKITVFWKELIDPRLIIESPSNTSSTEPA
UniProt O75175, whole entry, looked up: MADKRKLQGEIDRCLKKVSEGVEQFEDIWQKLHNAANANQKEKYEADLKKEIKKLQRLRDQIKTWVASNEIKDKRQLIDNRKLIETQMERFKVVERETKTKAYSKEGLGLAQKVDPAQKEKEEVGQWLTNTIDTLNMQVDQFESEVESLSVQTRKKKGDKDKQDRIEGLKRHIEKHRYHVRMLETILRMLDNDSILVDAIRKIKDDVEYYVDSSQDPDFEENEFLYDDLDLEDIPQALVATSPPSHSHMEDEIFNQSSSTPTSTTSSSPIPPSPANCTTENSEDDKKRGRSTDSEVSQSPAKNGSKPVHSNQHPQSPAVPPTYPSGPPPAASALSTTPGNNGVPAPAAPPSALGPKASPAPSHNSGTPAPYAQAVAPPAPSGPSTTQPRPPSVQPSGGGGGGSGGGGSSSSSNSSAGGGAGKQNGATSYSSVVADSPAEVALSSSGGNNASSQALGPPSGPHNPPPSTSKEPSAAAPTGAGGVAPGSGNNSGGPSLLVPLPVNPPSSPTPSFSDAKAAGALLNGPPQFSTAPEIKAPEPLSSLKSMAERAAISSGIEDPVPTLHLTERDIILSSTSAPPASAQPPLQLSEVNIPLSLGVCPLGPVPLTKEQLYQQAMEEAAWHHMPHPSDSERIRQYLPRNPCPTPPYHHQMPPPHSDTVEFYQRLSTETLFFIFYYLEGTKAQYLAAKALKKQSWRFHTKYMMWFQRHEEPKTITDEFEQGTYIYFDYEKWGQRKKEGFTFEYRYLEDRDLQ
UniProt P31146: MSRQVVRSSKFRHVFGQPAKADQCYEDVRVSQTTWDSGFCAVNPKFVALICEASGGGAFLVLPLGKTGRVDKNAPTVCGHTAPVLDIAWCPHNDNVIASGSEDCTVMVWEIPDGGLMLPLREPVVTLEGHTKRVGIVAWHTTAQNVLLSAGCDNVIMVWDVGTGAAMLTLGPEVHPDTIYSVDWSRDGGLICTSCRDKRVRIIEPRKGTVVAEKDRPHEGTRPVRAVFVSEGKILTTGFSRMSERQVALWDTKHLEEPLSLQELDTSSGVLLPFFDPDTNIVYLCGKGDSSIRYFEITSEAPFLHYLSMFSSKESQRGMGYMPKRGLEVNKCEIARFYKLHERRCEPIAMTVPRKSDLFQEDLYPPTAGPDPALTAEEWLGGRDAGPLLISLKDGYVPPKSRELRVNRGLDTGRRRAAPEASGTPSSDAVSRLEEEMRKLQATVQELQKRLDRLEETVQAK
UniProt Q7KZN9: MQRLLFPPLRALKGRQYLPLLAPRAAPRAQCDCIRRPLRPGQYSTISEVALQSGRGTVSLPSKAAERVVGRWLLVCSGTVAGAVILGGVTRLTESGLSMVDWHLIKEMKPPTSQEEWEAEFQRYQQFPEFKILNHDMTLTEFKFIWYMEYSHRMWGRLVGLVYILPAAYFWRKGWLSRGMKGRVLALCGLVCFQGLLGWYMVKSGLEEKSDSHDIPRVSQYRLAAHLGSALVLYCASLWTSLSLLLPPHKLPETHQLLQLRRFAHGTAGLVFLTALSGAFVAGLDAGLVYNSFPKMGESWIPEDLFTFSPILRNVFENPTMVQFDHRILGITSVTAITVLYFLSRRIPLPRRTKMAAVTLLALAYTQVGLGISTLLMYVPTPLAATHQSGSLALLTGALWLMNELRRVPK

Columns and labels:
Test in all cases: log2 fold change, soluble protein after heating vs DMSO (PISA); higher = thermal stabilisation; K562 lysate, 10 uM; active = over 0.2 and 3.5 SD of the protein, either way, in both replicates (recomputed)
vemurafenib = compound: CCCS(=O)(=O)Nc1ccc(F)c(C(=O)c2c[nH]c3ncc(-c4ccc(Cl)cc4)cc23)c1F [vemurafenib]
Method in brief: (§1)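 K562 pellets were dounce-homogenised in PBS pH 7.4 with 1 mM MgCl2, and the crude extract at 1 mg/mL protein was treated with 10 μM compound for 30 min. Aliquots were heated for 3 min across 48°C-58°C, pooled, and brought to 0.5% NP-40 at 4°C; soluble protein was the supernatant after 21,000xg for 90 min. Soluble protein was quantified by TMTpro 16plex LC-MS/MS with channel sums equalised, and reported as log2 fold change in thermal stability against DMSO controls, with values from duplicates.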

[1] = compound: CCCS(=O)(=O)Nc1ccc(F)c(C(=O)c2c[nH]c3ncc(Cl)cc23)c1F
Method in brief: as §1

barasertib = compound: CCN(CCCOc1ccc2c(Nc3cc(CC(=O)Nc4cccc(F)c4)[nH]n3)ncnc2c1)CCOP(=O)(O)O [barasertib]
Method in brief: as §1

[2] = compound: CC[C@@H]1C(=O)N(C)c2cnc(Nc3ccc(C(=O)NC4CCN(C)CC4)cc3OC)nc2N1C1CCCC1
Method in brief: as §1

volasertib = compound: CC[C@@H]1C(=O)N(C)c2cnc(Nc3ccc(C(=O)N[C@H]4CC[C@H](N5CCN(CC6CC6)CC5)CC4)cc3OC)nc2N1C(C)C [volasertib]
Method in brief: as §1

[3] = compound: CCn1c(C(=O)N(C2CC2)C2CC2)cc2c3c(ncn3C)c(Nc3cc(C)n(C)n3)nc21
Method in brief: as §1

[4] = compound: CCn1cc(-c2ccnc3[nH]c(-c4cccc(CN(C)C)c4)cc23)c(-c2ccc(NC(=O)N(C)C)cc2)n1
Method in brief: as §1

[5] = compound: CN1CCC(CNc2ccc3ncc(-c4cccc(OC(F)(F)F)c4)n3n2)CC1
Method in brief: as §1

saracatinib = compound: CN1CCN(CCOc2cc(OC3CCOCC3)c3c(Nc4c(Cl)ccc5c4OCO5)ncnc3c2)CC1 [saracatinib]
Method in brief: as §1

sotrastaurin = compound: CN1CCN(c2nc(C3=C(c4c[nH]c5ccccc45)C(=O)NC3=O)c3ccccc3n2)CC1 [sotrastaurin]
Method in brief: as §1

alvocidib = compound: CN1CC[C@H](c2c(O)cc(O)c3c(=O)cc(-c4ccccc4Cl)oc23)[C@H](O)C1 [alvocidib]
Method in brief: as §1

Tubastatin A = compound: CN1CCc2c(c3ccccc3n2Cc2ccc(C(=O)NO)cc2)C1 [Tubastatin A]
Method in brief: as §1

[6] = compound: CNC(=O)C1=CC=CC=C1NC2=NC(=NC=C2Cl)NC3=C(C=C(C=C3)N4CCOCC4)OC
Method in brief: as §1

defactinib = compound: CNC(=O)c1ccc(Nc2ncc(C(F)(F)F)c(NCc3nccnc3N(C)S(C)(=O)=O)n2)cc1 [defactinib]
Method in brief: as §1

[7] = compound: CNc1nc(-c2ccc3c(N)n[nH]c3c2)cc(N2C[C@@H](C(=O)NC3CCCCC3)CC[C@H]2C)n1
Method in brief: as §1

encorafenib = compound: COC(=O)N[C@@H](C)CNc1nccc(-c2cn(C(C)C)nc2-c2cc(Cl)cc(NS(C)(=O)=O)c2F)n1 [encorafenib]
Method in brief: as §1

[8] = compound: COC(=O)[C@H](CCSC)NC(=O)C1=C(C=C(C=C1)NC[C@H](CS)N)C2=CC=CC=C2
Method in brief: as §1

alisertib = compound: COc1cc(Nc2ncc3c(n2)-c2ccc(Cl)cc2C(c2c(F)cccc2OC)=NC3)ccc1C(=O)O [alisertib]
Method in brief: as §1

[9] = compound: COc1cc2nc(-c3cc(F)ccc3O)nc(N[C@@H]3CNC[C@H]3C(C)(C)O)c2cc1OC
Method in brief: as §1

gefitinib = compound: COc1cc2ncnc(Nc3ccc(F)c(Cl)c3)c2cc1OCCCN1CCOCC1 [gefitinib]
Method in brief: as §1

Measured: log2 fold change

CPNE3 (UniProt O75131)
inactive: vemurafenib -0.006 | [1] 0.007 | barasertib -0.03 | [2] -0.056 | volasertib -0.03 | [3] 0.032 | [4] -0.117 | [5] 0.085 | saracatinib -0.019 | sotrastaurin -0.004 | alvocidib -0.081 | Tubastatin A -0.069 | [6] -0.001 | defactinib 0.045 | [7] 0.002 | encorafenib 0.029 | [8] -0.037 | alisertib -0.022 | [9] -0.016 | gefitinib 0.005

COMMD8 (UniProt Q9NX08)
inactive: vemurafenib -0.143 | [1] -0.009 | barasertib 0.103 | [2] 0.053 | volasertib 0.086 | [3] 0.036 | [4] -0.065 | [5] -0.002 | saracatinib 0.049 | sotrastaurin -0.074 | alvocidib 0.093 | Tubastatin A 0.117 | [6] 0.113 | defactinib 0.006 | [7] 0.024 | encorafenib 0.104 | [8] -0.296 | alisertib 0.063 | [9] 0.019 | gefitinib -0.189

COMMD7 (UniProt Q86VX2)
inactive: vemurafenib -0.006 | [1] 0.019 | barasertib 0.001 | [2] 0.04 | volasertib -0.036 | [3] -0.021 | [4] -0.205 | [5] 0.107 | saracatinib -0.035 | sotrastaurin -0.011 | alvocidib -0.107 | Tubastatin A 0 | [6] 0.046 | defactinib 0.064 | [7] 0.069 | encorafenib 0.016 | [8] -0.229 | alisertib 0.031 | [9] 0.024 | gefitinib -0.023

COMMD4 (UniProt Q9H0A8)
inactive: vemurafenib 0.021 | [1] 0.005 | barasertib -0.027 | [2] -0.052 | volasertib 0.011 | [3] 0.07 | [4] -0.047 | [5] 0.028 | saracatinib 0.035 | sotrastaurin 0.012 | alvocidib -0.017 | Tubastatin A -0.131 | [6] 0.021 | defactinib -0.017 | [7] -0.022 | encorafenib 0.026 | [8] -0.162 | alisertib -0.06 | [9] 0.005 | gefitinib -0.018

COMMD10 (UniProt Q9Y6G5)
inactive: vemurafenib -0.012 | [1] -0.001 | barasertib 0.104 | [2] 0.039 | volasertib -0.016 | [3] 0.02 | [4] 0.062 | [5] 0.001 | saracatinib 0.022 | sotrastaurin -0.005 | alvocidib 0.022 | Tubastatin A 0.065 | [6] -0.003 | defactinib 0.054 | [7] -0.023 | encorafenib 0.03 | [8] -0.107 | alisertib -0.007 | [9] -0.021 | gefitinib 0.062

COMMD9 (UniProt Q9P000)
inactive: vemurafenib -0.02 | [1] 0.011 | barasertib 0.069 | [2] 0.104 | volasertib 0.083 | [3] -0.063 | [4] 0.048 | [5] -0.046 | saracatinib -0.014 | sotrastaurin -0.075 | alvocidib 0.026 | Tubastatin A 0.079 | [6] 0.022 | defactinib 0.14 | [7] 0.038 | encorafenib 0.036 | [8] -0.114 | alisertib 0.079 | [9] -0.051 | gefitinib -0.133

CPOX (UniProt P36551)
inactive: vemurafenib 0.01 | [1] 0.056 | barasertib -0.056 | [2] 0.055 | volasertib 0.006 | [3] -0.039 | [4] 0.062 | [5] 0.035 | saracatinib -0.011 | sotrastaurin 0.036 | alvocidib -0.013 | Tubastatin A 0.015 | [6] 0.095 | defactinib -0.036 | [7] 0.112 | encorafenib 0.002 | [8] -0.056 | alisertib 0.018 | [9] 0 | gefitinib 0.029

CNOT2 (UniProt Q9NZN8)
inactive: vemurafenib 0.037 | [1] -0.026 | barasertib 0.065 | [2] 0.029 | volasertib -0.048 | [3] 0.039 | [4] 0.17 | [5] -0.059 | saracatinib -0.013 | sotrastaurin 0.002 | alvocidib -0.003 | Tubastatin A -0.046 | [6] -0.002 | defactinib 0.001 | [7] -0.027 | encorafenib -0.002 | [8] 0.013 | alisertib -0.025 | [9] 0.008 | gefitinib 0.011

CNST (UniProt Q6PJW8)
inactive: vemurafenib 0.002 | [1] -0.026 | barasertib -0.07 | [2] 0.079 | volasertib -0.008 | [3] 0.02 | [4] -0.066 | [5] 0.019 | saracatinib 0.033 | sotrastaurin 0.039 | alvocidib 0 | Tubastatin A -0.055 | [6] 0.043 | defactinib 0.041 | [7] -0.027 | encorafenib 0.03 | [8] -0.096 | alisertib -0.031 | [9] 0.024 | gefitinib 0.002

Two successive entries already listed, quoted:
CNOT2 (UniProt Q9NZN8)
inactive: vemurafenib 0.037 | [1] -0.026 | barasertib 0.065 | [2] 0.029 | volasertib -0.048 | [3] 0.039 | [4] 0.17 | [5] -0.059 | saracatinib -0.013 | sotrastaurin 0.002 | alvocidib -0.003 | Tubastatin A -0.046 | [6] -0.002 | defactinib 0.001 | [7] -0.027 | encorafenib -0.002 | [8] 0.013 | alisertib -0.025 | [9] 0.008 | gefitinib 0.011

CNST (UniProt Q6PJW8)
inactive: vemurafenib 0.002 | [1] -0.026 | barasertib -0.07 | [2] 0.079 | volasertib -0.008 | [3] 0.02 | [4] -0.066 | [5] 0.019 | saracatinib 0.033 | sotrastaurin 0.039 | alvocidib 0 | Tubastatin A -0.055 | [6] 0.043 | defactinib 0.041 | [7] -0.027 | encorafenib 0.03 | [8] -0.096 | alisertib -0.031 | [9] 0.024 | gefitinib 0.002

The list continues.

CNNM3 (UniProt Q8NE01)
inactive: vemurafenib -0.047 | [1] 0.001 | barasertib 0.02 | [2] 0.01 | volasertib -0.021 | [3] 0.01 | [4] -0.014 | [5] -0.018 | saracatinib -0.018 | sotrastaurin 0.011 | alvocidib 0.004 | Tubastatin A 0.068 | [6] 0.016 | defactinib -0.037 | [7] 0.043 | encorafenib -0.013 | [8] 0.007 | alisertib -0.021 | [9] -0.019 | gefitinib 0.016

COASY isoform 2 (UniProt Q13057)
inactive: vemurafenib 0.076 | [1] 0.017 | barasertib 0.011 | [2] -0.075 | volasertib -0.098 | [3] 0.034 | [4] -0.063 | [5] 0.038 | saracatinib 0.021 | sotrastaurin 0.079 | alvocidib 0.015 | Tubastatin A -0.124 | [6] -0.003 | defactinib 0.064 | [7] -0.023 | encorafenib -0.012 | [8] 0.032 | alisertib 0.023 | [9] -0.025 | gefitinib -0.005

COIL (UniProt P38432)
inactive: vemurafenib -0.052 | [1] -0.029 | barasertib 0.027 | [2] 0.061 | volasertib -0.056 | [3] -0.004 | [4] 0.056 | [5] -0.027 | saracatinib -0.038 | sotrastaurin 0.007 | alvocidib 0.058 | Tubastatin A -0.021 | [6] 0.056 | defactinib -0.016 | [7] -0.013 | encorafenib 0.064 | [8] 0.003 | alisertib 0.043 | [9] -0.041 | gefitinib -0.011

CNOT3 (UniProt O75175)
inactive: vemurafenib -0.01 | [1] 0.008 | barasertib -0.001 | [2] 0.159 | volasertib -0.013 | [3] 0.055 | [4] -0.044 | [5] 0.08 | saracatinib 0.009 | sotrastaurin -0.009 | alvocidib 0.002 | Tubastatin A -0.02 | [6] 0.025 | defactinib -0.034 | [7] 0.055 | encorafenib 0.009 | [8] 0.058 | alisertib 0.028 | [9] 0.002 | gefitinib -0.02

CORO1A (UniProt P31146)
inactive: vemurafenib -0.021 | [1] -0.001 | barasertib 0.013 | [2] 0.025 | volasertib -0.035 | [3] 0.11 | [4] -0.113 | [5] 0.021 | saracatinib -0.169 | sotrastaurin -0.007 | alvocidib 0 | Tubastatin A -0.02 | [6] 0.013 | defactinib -0.034 | [7] 0.037 | encorafenib -0.051 | [8] 0.144 | alisertib -0.018 | [9] -0.021 | gefitinib -0.037

COX15 (UniProt Q7KZN9)
inactive: vemurafenib 0.015 | [1] 0.012 | barasertib 0.007 | [2] 0.025 | volasertib 0.073 | [3] -0.064 | [4] -0.139 | [5] 0.074 | saracatinib -0.007 | sotrastaurin 0.008 | alvocidib -0.088 | Tubastatin A 0.075 | [6] 0.014 | defactinib 0.042 | [7] 0.042 | encorafenib 0.005 | [8] -0.011 | alisertib 0.014 | [9] -0.005 | gefitinib 0.014
